Data as given in article PMC11628678.
These are yes or no findings as the source states them, for the method shown. In cells and extracts the contact can be indirect. Some entries that bind do so weakly or less than the wild type.

Target: Yes1-associated transcriptional regulator (YAP1) (human (endogenous in the human SSC line)) (UniProt P46937)
Assay: co-IP; endogenous proteins; human SSC line lysed in the binding/washing buffer of the Pierce IP/Co-IP kit; 10 ug anti-YAP1 or anti-RAD21 antibody overnight at 4 °C, protein A/G magnetic beads 2 h at room temperature; Western blot

B1: RAD21 (RAD21 cohesin complex component) (protein, UniProt O60216 1-631)
chain: MFYAHFVLSKRGPLAKIWLAAHWDKKLTKAHVFECNLESSVESIISPKVKMALRTSGHLLLGVVRIYHRKAKYLLADCNEAFIKIKMAFRPGVVDLPEENREAAYNAITLPEEFHDFDQPLPDLDDIDVAQQFSLNQSRVEEITMREEVGNISILQENDFGDFGMDDREIMREGSAFEDDDMLVSTTTSNLLLESEQSTSNLNEKINHLEYEDQYKDDNFGEGNDGGILDDKLISNNDGGIFDDPPALSEAGVMLPEQPAHDDMDEDDNVSMGGPDSPDSVDPVEPMPTMTDQTTLVPNEEEAFALEPIDITVKETKAKRKRKLIVDSVKELDSKTIRAQLSDYSDIVTTLDLAPPTKKLMMWKETGGVEKLFSLPAQPLWNNRLLKLFTRCLTPLVPEDLRKRRKGGEADNLDEFLKEFENPEVPREDQQQQHQQRDVIDEPIIEEPSRLQESVMEASRTNIDESAMPPPPPQGVKRKAGQIDPEPVMPPQQVEQMEIPPVELPPEEPPNICQLIPELELLPEKEKEKEKEKEDDEEEEDEDASGGDQDQEERRWNKRTQQMLHGLQRALAKTGAESISLLELCRNTNRKQAAAKFYSFLVLKKQQAIELTQEEPYSDIIATPGPRFHII
  binding: binds
